In paper PMC10457367:
No constants are given. Whether binding was seen depends on the method and setting. In cells and extracts the contact can be indirect.

Target: T1, SEC31A (expressed from a plasmid in HEK293 cells) (human) (UniProt O94979)
T1 sequence: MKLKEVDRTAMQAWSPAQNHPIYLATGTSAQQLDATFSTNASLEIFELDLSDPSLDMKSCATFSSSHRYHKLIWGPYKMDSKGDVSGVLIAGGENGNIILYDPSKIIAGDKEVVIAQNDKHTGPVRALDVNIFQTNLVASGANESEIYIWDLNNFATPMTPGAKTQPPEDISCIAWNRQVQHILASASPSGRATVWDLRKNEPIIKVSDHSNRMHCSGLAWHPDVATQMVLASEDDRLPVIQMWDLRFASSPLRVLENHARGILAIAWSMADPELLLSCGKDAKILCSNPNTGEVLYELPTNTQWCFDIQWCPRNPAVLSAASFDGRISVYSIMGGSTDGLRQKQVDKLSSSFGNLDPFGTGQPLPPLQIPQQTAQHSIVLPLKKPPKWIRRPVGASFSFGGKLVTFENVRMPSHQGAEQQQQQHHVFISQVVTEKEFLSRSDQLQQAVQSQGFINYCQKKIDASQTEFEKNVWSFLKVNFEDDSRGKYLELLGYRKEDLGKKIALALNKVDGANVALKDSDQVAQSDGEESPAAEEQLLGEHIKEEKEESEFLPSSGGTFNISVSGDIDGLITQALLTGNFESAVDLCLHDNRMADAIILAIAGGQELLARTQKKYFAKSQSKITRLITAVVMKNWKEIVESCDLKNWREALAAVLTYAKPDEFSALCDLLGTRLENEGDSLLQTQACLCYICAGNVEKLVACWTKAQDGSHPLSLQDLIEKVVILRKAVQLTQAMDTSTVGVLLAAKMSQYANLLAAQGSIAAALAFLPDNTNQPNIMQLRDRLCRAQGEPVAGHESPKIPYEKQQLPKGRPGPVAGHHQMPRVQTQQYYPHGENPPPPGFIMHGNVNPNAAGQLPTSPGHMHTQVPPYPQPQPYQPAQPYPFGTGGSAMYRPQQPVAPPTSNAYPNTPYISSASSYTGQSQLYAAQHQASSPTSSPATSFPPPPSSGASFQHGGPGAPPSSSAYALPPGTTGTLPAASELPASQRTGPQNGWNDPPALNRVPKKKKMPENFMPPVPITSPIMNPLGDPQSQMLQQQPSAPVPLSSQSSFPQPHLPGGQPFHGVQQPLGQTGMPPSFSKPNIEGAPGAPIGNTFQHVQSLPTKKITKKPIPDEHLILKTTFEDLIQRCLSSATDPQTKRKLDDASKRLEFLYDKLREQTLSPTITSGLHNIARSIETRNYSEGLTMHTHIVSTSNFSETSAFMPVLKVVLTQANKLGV
Experiment: co-IP; HEK293 cells transfected with the indicated plasmids; lysates 48 h later on anti-FLAG M2 Magnetic Beads or anti-GFP mAb-Magnetic Beads; washed four times with 50 mM HEPES pH 7.5, 0.15 M NaCl, 0.1% NP-40; western blot

binding: no binding
B1: LZTR1 (expressed from a plasmid in HEK293 cells) (protein, UniProt Q8N653 1-840)
chain: MAGPGSTGGQIGAAALAGGARSKVAPSVDFDHSCSDSVEYLTLNFGPFETVHRWRRLPPCDEFVGARRSKHTVVAYKDAIYVFGGDNGKTMLNDLLRFDVKDCSWCRAFTTGTPPAPRYHHSAVVYGSSMFVFGGYTGDIYSNSNLKNKNDLFEYKFATGQWTEWKIEGRLPVARSAHGATVYSDKLWIFAGYDGNARLNDMWTIGLQDRELTCWEEVAQSGEIPPSCCNFPVAVCRDKMFVFSGQSGAKITNNLFQFEFKDKTWTRIPTEHLLRGSPPPPQRRYGHTMVAFDRHLYVFGGAADNTLPNELHCYDVDFQTWEVVQPSSDSEVGGAEVPERACASEEVPTLTYEERVGFKKSRDVFGLDFGTTSAKQPTQPASELPSGRLFHAAAVISDAMYIFGGTVDNNIRSGEMYRFQFSCYPKCTLHEDYGRLWESRQFCDVEFVLGEKEECVQGHVAIVTARSRWLRRKITQARERLAQKLEQEAAPVPREAPGVAAGGARPPLLHVAIREAEARPFEVLMQFLYTDKIKYPRKGHVEDVLLIMDVYKLALSFQLCRLEQLCRQYIEASVDLQNVLVVCESAARLQLSQLKEHCLNFVVKESHFNQVIMMKEFERLSSPLIVEIVRRKQQPPPRTPLDQPVDIGTSLIQDMKAYLEGAGAEFCDITLLLDGHPRPAHKAILAARSSYFEAMFRSFMPEDGQVNISIGEMVPSRQAFESMLRYIYYGEVNMPPEDSLYLFAAPYYYGFYNNRLQAYCKQNLEMNVTVQNVLQILEAADKTQALDMKRHCLHIIVHQFTKVSKLPTLRSLSQQLLLDIIDSLASHISDKQCAELGADI
